The supplement of paper PMC12259267, “Disruption of the KLHL37–N-Myc complex restores N-Myc degradation and arrests neuroblastoma growth in mouse models” (The Journal of Clinical Investigation, 2025)
This is one part of the list. Repeats are few or missing, and single values can be far off.

The compounds below were run on SK-N-BE(2) (assay: inhibition of N-Myc immunofluorescence signal per cell relative to control (fraction); higher = stronger N-Myc protein reduction). Details: 1 µM; 9 h.

Question: With COC(=O)c1ccc2c(c1)nc(NC(=O)c1ccccc1)n2CCCc1ccccc1 as the compound, how does the “inhibition of N-Myc immunofluorescence signal per cell” value (“inhibition … per cell” for short) read?
Answer: -0.112

Question: O=C(O)c1ccc(N2N=C(Cc3ccccc3)C(=Cc3ccc(-c4ccccc4F)o3)C2=O)cc1 was tested. Which “inhibition … per cell” value did it give?
Answer: 0.26

Question: For O=C1/C(=C/c2cccs2)CC/C1=C\c1cccs1, which “inhibition … per cell” value is on record?
Answer: -0.0426

Question: Nc1cccc2c1C(=O)N(C1CCC(=O)NC1=O)C2=O (stereo not given) [Pomalidomide] was tested. Which “inhibition … per cell” value did it give?
Answer: 0.03

Question: For COc1cc(C(=O)Nc2ccccc2-c2cn3c(CN4CCNCC4)csc3n2)cc(OC)c1OC, which “inhibition … per cell” value is on record?
Answer: -0.00817

Question: CCOc1cc(/C=C2/C(=O)N(c3ccccc3)N=C2C)cc(Cl)c1OCC(=O)OC was tested. Which “inhibition … per cell” value did it give?
Answer: 0.144

Question: For [Na+].[Na+].[Na+].[O]=[V]([O-])([O-])[O-] [Sodium orthovanadate], which “inhibition … per cell” value is on record?
Answer: -0.222

Question: Which “inhibition … per cell” value does the source give for O=C(C[C@@H](C(F)F)n1ccc(F)n1)N1CCC(O)(Cn2cnc3c(cnn3-c3ccc(F)cc3)c2=O)CC1 here?
Answer: -0.189

Question: O=C(CCCCCN1C(=O)c2cccc3cccc(c23)C1=O)NO [Scriptaid] was tested. Which “inhibition … per cell” value did it give?
Answer: -0.0882

Question: How did the “inhibition … per cell” value turn out when O=C(O)CCCCCCCCOc1cccc2c1C(=O)N(C1CCC(=O)NC1=O)C2=O (stereo not given) [Thalidomide-O-C8-COOH] was run?
Answer: -0.0851

Question: For Cc1ncsc1-c1ccc(CNC(=O)[C@@H]2C[C@@H](O)CN2C(=O)[C@@H](NC(=O)OC(C)(C)C)C(C)(C)C)cc1, which “inhibition … per cell” value is on record?
Answer: 0.216

Question: Which “inhibition … per cell” value does the source give for COc1ccc(Cn2ccc3ccc(C(=O)NO)cc32)cc1 here?
Answer: 0.0374

Question: CC(=O)O/N=C1\C(=O)N(Cc2cc(Cl)ccc2Cl)c2ccc(Cl)cc21 was tested. Which “inhibition … per cell” value did it give?
Answer: 0.00874

Question: Which “inhibition … per cell” value does the source give for CCc1cc2c(=O)c(-c3nc4ccccc4s3)coc2c(CN2CCCCC2)c1O here?
Answer: -0.00635

Question: For CCCCCC/C=C\CCCCCCCc1cccc(O)c1C(=O)O [Ginkgolic Acid], which “inhibition … per cell” value is on record?
Answer: 0.221

Question: With CCCC[C@@H](C=O)NC(=O)[C@H](CC(C)C)NC(=O)OCc1ccccc1 [Calpeptin] as the compound, how does the “inhibition … per cell” value read?
Answer: -0.0433

Question: With CCc1c(-c2ccc(C(=O)NC)nc2)cnc(N)c1-c1ccc(O)cc1 as the compound, how does the “inhibition … per cell” value read?
Answer: 0.163

Question: How did the “inhibition … per cell” value turn out when O=C(O)CCNc1cc(N2CCc3ccccc3CC2)nc(-c2ccccn2)n1 was run?
Answer: -0.281

Question: For CC1=NN(c2ccc(C(=O)O)cc2)C(=O)C1=Cc1ccc(-c2cc(C)c(C)cc2[N+](=O)[O-])o1, which “inhibition … per cell” value is on record?
Answer: -0.223

Question: With O=C(O)CNC(=O)c1nc(Cl)c2ccccc2c1O as the compound, how does the “inhibition … per cell” value read?
Answer: -0.109

Question: For COc1ccc(CNC(=O)CCl)cc1OC, which “inhibition … per cell” value is on record?
Answer: 0.136

Question: For O=C(CCCCCCC(=O)Nc1ccccc1)NO [Vorinostat], which “inhibition … per cell” value is on record?
Answer: -0.258

Question: Which “inhibition … per cell” value does the source give for Cc1ccc(N)cc1C(=O)N[C@H](C)c1cccc2ccccc12 here?
Answer: -0.162

Question: COc1ncc(-c2nc3c(n2C(C)C)[C@H](c2ccc(Cl)cc2)N(c2cc(Cl)cn(C)c2=O)C3=O)c(OC)n1 [Siremadlin] was tested. Which “inhibition … per cell” value did it give?
Answer: 0.104

Question: How did the “inhibition … per cell” value turn out when O=C(NO)c1cnc(NC2(c3ccccc3)CC2)nc1 was run?
Answer: -0.289

Question: C=C1C(=O)O[C@@H]2/C=C(\C)CC/C=C(\C)CC[C@@H]12 [Costunolide] was tested. Which “inhibition … per cell” value did it give?
Answer: 0.135

Question: How did the “inhibition … per cell” value turn out when O=C(NO)c1cccc(C(=O)NCCc2ccccc2)c1 was run?
Answer: -0.0486

Question: For N#CSc1cc(SC#N)c(N)nc1N, which “inhibition … per cell” value is on record?
Answer: -0.143

Question: Which “inhibition … per cell” value does the source give for N#Cc1ccc(N2CCN(Cc3ccc(COc4cccc5c4CN([C@H]4CCC(=O)NC4=O)C5=O)cc3)CC2)c(F)c1 here?
Answer: -0.00387

Question: Which “inhibition … per cell” value does the source give for Cc1c(C(=O)Nc2ccc(CN)cc2)ncnc1N1CCC(C#N)(c2ccccc2)CC1 here?
Answer: 0.144

Question: COc1ccc(C2=N[C@@H](c3ccc(Cl)cc3)[C@@H](c3ccc(Cl)cc3)N2C(=O)N2CCNC(=O)C2)c(OC(C)C)c1 [Nutlin-3] was tested. Which “inhibition … per cell” value did it give?
Answer: 0.0346

Question: For O=C1NN(c2ccc(F)c(Cl)c2)C(=O)/C1=C\c1ccc([N+](=O)[O-])o1, which “inhibition … per cell” value is on record?
Answer: 0.324

Question: With COc1cc2c(NC3CCN(C)CC3)cc(-c3ccc(C)o3)nc2cc1OCCCN1CCCC1 as the compound, how does the “inhibition … per cell” value read?
Answer: 0.0792

Question: COc1cc(C(N)=O)ccc1NC(=O)[C@@H]1N[C@@H](CC(C)(C)C)[C@@]2(C(=O)Nc3cc(Cl)ccc32)[C@H]1c1cccc(Cl)c1F was tested. Which “inhibition … per cell” value did it give?
Answer: 0.0639

Question: How did the “inhibition … per cell” value turn out when CC(=O)N1CCC(Nc2cc(C(=O)NC[C@H](O)CN3CCc4ccccc4C3)ncn2)CC1 was run?
Answer: -0.0194
